The assay can be described thus: qHTS Assay for Lipid Storage Modulators in Drosophila S3 Cells.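 For cell number change: cells counted by Cell Tracker Red CMTPX staining in the red channel.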 As to conditions: BODIPY lipid droplet fluorescence, 18-24 h; for cell number change: measured here: cell count max response, cells fed with added oleic acid. A digest of the protocol: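 Drosophila S3 cells loaded with oleic acid (400 uM, as added) and compounds at several concentrations; lipid droplets imaged by 488-nm laser-scanning cytometry, 500–530 nm intensity and object ratio to cell channel. Percent activity normalized to 20 uM Triacsin C.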
Background: qHTS replaces the single test concentration by a dilution series.

The mark [1] stands for this setting: measured here: cell number channel AC50, cells fed with added oleic acid.
[2] abbreviates: measured here: lipid fluorescence (Fed channel) AC50, cells fed with added oleic acid.

SMILES strings stand for the structures. The list shows a part of the results. The main result of the screen is listed elsewhere. These columns were measured beside it and carry no call. Compounds called inactive in the main read-out are mostly missing here. Potencies come from curve fits of mixed quality, noted in brackets.

For `CC(C)(C)c1ccc(C(=O)Nc2ccc(S(N)(=O)=O)cc2)cc1`, the cell number change was -49.7%. Moreover, the AC50 (in general, the concentration giving half of the maximal activity seen) under setting [1] is 20.6 µM [falling, single point]. For the same compound, the AC50 under setting [2] was 18.4 µM [falling, single point].

As for `COc1ccc(Cn2nnnc2CN(Cc2cc3cc(C)ccc3[nH]c2=O)C2CCCC2)cc1`, under setting [2], the AC50 is 0.651 µM [rising, single point].

In the case of `COc1ccc(C2=NN(c3nc4ccccc4s3)C(=O)/C2=C\N(C)C)cc1`, the cell number change was -0.705%.

Regarding `COc1ccccc1NC(=O)NCCCCc1ccccc1`, the cell number change was -21%. Under setting [2], the AC50 was 35.5 µM [falling, single point].

On to `CCc1nc(SCC(=O)Nc2ccccc2C)n[nH]1`, for which the cell number change is -16.8%. For the same compound, the AC50 under setting [1] is 4.61 µM [rising, single point].

As for `CSc1ccccc1C(=O)NCCOc1cccc(C)c1`, the cell number change was 11.8%.

On to `COc1ccc(-n2c(SCC(=O)NCc3ccco3)nc3sc4c(c3c2=O)CCN(C)C4)cc1`, for which the cell number change worked out at 15.6%. Further, the AC50 under setting [2] is 29.1 µM [falling, single point].

In the case of `CC(C)(CN1CCNCC1)NS(=O)(=O)c1ccc(Cl)cc1`, the cell number change is -15.9%. In addition, the AC50 under setting [1] was 0.461 µM [falling, single point]. Under setting [2], the concentration at half-maximal activity (AC50) is 0.366 µM [rising, partial curve, poor fit].

`CCOc1ccc(NC(=S)N2CCN(S(=O)(=O)c3ccccc3)CC2)cc1`: the cell number change was 13.3%. For the same compound, under setting [2], the half-maximal activity concentration (AC50) is 5.17 µM [rising, full curve].

For the compound `Cc1ccccc1OCC(O)CNC1CCC(NCC(O)COc2ccccc2C)CC1` (centres undefined), the cell number change is -59.4%. In addition, the AC50 under setting [1] is 29.1 µM [falling, single point]. Also, the half-maximal activity concentration (AC50) under setting [2] was 0.13 µM [falling, full curve, poor fit].

Regarding `CCC(C)Nc1nc(N)c([N+](=O)[O-])c(NCc2ccccc2)n1` (centres undefined), the cell number change is 20.7%. The AC50 under setting [1] is 0.184 µM [rising, single point]. The AC50 under setting [2] is 0.259 µM [falling, full curve].

On to `COc1ccccc1Nc1ncnc2c1c(C)c(C)n2CCO`, for which the cell number change was 15.5%. For the same compound, under setting [2], the AC50 was 7.31 µM [falling, single point].

As for `Cc1cccc(NC(=O)CSc2nnc(NC(=O)C3CCC3)s2)c1`, the cell number change stood at 0.42%.

Consider `O=C(CN(C(=O)Cn1nnc(-c2cccs2)n1)c1ccc2c(c1)OCCO2)NC1CCCCC1`, for which the cell number change was -9.04%. Moreover, the AC50 under setting [1] is 0.00517 µM [falling, full curve, poor fit].

Take `O=C(c1ccc2c3c(cccc13)CC2)C1CCCN(Cc2ccncc2)C1` (centres undefined): the cell number change was -12.1%. Further, the AC50 under setting [2] is 16.4 µM [falling, single point].

For the compound `Cc1cccc(N2CCN(S(=O)(=O)c3c(C)nc4scc(C)n4c3=O)CC2)c1C`, the cell number change came out at 15.4%. Also, under setting [2], the AC50 was 5.17 µM [rising, single point].

Take `COc1ccccc1-c1nnc(SCC(=O)N2CCCCC2)o1`: the cell number change worked out at 30%. Also, the AC50 under setting [1] was 0.082 µM [rising, full curve, poor fit]. Besides, under setting [2], the AC50 is 8.2 µM [rising, partial curve, poor fit].

Take `CCOc1ccc2c(c1)C(c1ccc(C)cc1)=NNC(c1ccc(OC)cc1)=N2`: the cell number change turned out to be 11.8%. Besides, under setting [1], the concentration at half-maximal activity (AC50) is 1.16 µM [rising, partial curve].

As to `CC(C)(C)N1CC(C(=O)Nc2ccc(C#N)cc2)CC1=O` (centres undefined), the cell number change is 16.2%. Moreover, under setting [2], the AC50 is 23.1 µM [falling, single point].

Turning to `CC1(C)C=C(c2ccc(O)cc2)CC(C)(C)N1`, the cell number change was -9.09%. Under setting [2], the AC50 is 29.1 µM [rising, single point].

With `c1ccc2[nH]c(SCC3CCCCO3)nc2c1` (centres undefined), the cell number change came out at 20.1%. The AC50 under setting [1] was 0.291 µM [rising, partial curve, poor fit].

With `c1ccc(Cn2ncc3c(N4CCN(C(c5ccccc5)c5ccccc5)CC4)ncnc32)cc1`, the cell number change was 83.6%. The half-maximal activity concentration (AC50) under setting [1] was 10.3 µM [rising, partial curve]. Under setting [2], the AC50 is 23.1 µM [rising, partial curve].

As to `CC1CCN(C(=O)c2[nH]cnc2C(=O)N2CCN(C(=O)OC(C)(C)C)CC2)CC1`, the cell number change amounted to 12%.

As to `O=C1CC(c2ccc3c(c2)OCO3)c2cc3c(cc2N1)OCCO3` (centres undefined), the cell number change is -39.1%. The AC50 under setting [1] was 18.4 µM [falling, single point]. Also, under setting [2], the AC50 was 29.1 µM [falling, single point].

In the case of `CNCCOc1ccccc1OC(C)C`, the cell number change came to 1.96%. Moreover, under setting [2], the concentration at half-maximal activity (AC50) was 0.231 µM [rising, full curve].

On to `COC(=O)c1oc(-c2ccccc2)nc1C`, for which the cell number change is 6.85%. The AC50 under setting [1] is 6.51 µM [rising, single point]. Moreover, the AC50 under setting [2] was 4.11 µM [rising, single point].

Turning to `COc1cc2c(cc1/C=C/C(=O)O)OC(C)C2` (centres undefined), the cell number change was 20.4%. Further, the AC50 under setting [2] was 0.731 µM [rising, partial curve, poor fit].

In the case of `COc1cccc(C2C3=C(CCCC3=O)Nc3nc(-c4cc(OC)c(OC)c(OC)c4)nn32)c1` (centres undefined), the cell number change is -33.8%. Besides, the AC50 under setting [1] is 13 µM [falling, single point]. Besides, the AC50 under setting [2] is 29.1 µM [falling, single point].

With `Cc1nn(C)c(C)c1NC(=O)COc1ccc(Cl)cc1`, the cell number change was -26.6%. Under setting [2], the concentration at half-maximal activity (AC50) is 3.66 µM [falling, single point].

`CO/N=C/c1cn(-c2ccc(Cl)cc2)nn1`: the cell number change was -16.3%. Moreover, the AC50 under setting [1] is 2.59 µM [falling, single point].

With `COC(=O)C1Cc2ccccc2CN1S(=O)(=O)c1ccc(F)cc1` (centres undefined), the cell number change turned out to be 14.6%.

For the compound `COc1ccc(OC)c(NC(=O)COC(=O)C2CCC2)c1`, the cell number change is -16.7%.

With `C/C(=N/NC(=O)CNC(=O)c1cccc(F)c1)c1ccc2c(c1)CCCC2`, the cell number change turned out to be 56.2%. Also, under setting [1], the AC50 is 10.3 µM [rising, partial curve, poor fit]. For the same compound, under setting [2], the concentration at half-maximal activity (AC50) was 6.51 µM [rising, single point].

As to `COCCn1nnnc1C(c1ccc(O)c(OC)c1)N1CCc2ccccc2C1` (centres undefined), the cell number change was 10.1%.

`CC(C)c1ccc(/C=C2\SC(N3CCOCC3)=NC2=O)cc1`: the cell number change is 11.9%. Also, the AC50 under setting [2] was 32.6 µM [falling, single point].

As to `CCOC(=O)c1cnc2ccc(C(=O)OC)cc2c1NCCCN1CCOCC1`, the cell number change is -6.08%. Under setting [2], the concentration at half-maximal activity (AC50) was 29.1 µM [falling, single point].

On to `COc1cccc(OC)c1C(=O)N1CCNCC1`, for which the cell number change was determined as 5.47%. Moreover, under setting [2], the AC50 was 0.651 µM [rising, partial curve, poor fit].

Take `CCOC(=O)c1[nH]c(C)c(C(=O)NCCN2CCOCC2)c1C`: the cell number change was -17.3%. For the same compound, the AC50 under setting [1] is 0.651 µM [falling, full curve]. Moreover, the AC50 under setting [2] is 2.06 µM [falling, partial curve].

The values are drawn from PubChem BioAssay AID2685 (National Center for Advancing Translational Sciences (NCATS), 2010).
